The other results are listed elsewhere or left out.
Compound: Cc1cc(ccc1-c1ccccc1)C(=O)N1CCCN(CC1)C(=O)CCl [compound 10]
Assay: probe-labelled cysteine peptide fold change vs DMSO (competition) (log2 fold change); higher = less target engagement (more negative = stronger competition)
Settings: THP-1, incubation time: 4 h
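Also: competitive profiling in live THP-1 cells: cysteine peptides tagged with an iodoacetamide desthiobiotin (IA-DTB) probe, intensity after compound treatment relative to DMSO-treated cells.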

By UniProt entry, the sequences of proteins in these tests, tags left out. Where a name states a change or a piece, a line headed by the entry shows the natural chain unless it says otherwise.
UniProt Q5VYK3, whole entry, looked up: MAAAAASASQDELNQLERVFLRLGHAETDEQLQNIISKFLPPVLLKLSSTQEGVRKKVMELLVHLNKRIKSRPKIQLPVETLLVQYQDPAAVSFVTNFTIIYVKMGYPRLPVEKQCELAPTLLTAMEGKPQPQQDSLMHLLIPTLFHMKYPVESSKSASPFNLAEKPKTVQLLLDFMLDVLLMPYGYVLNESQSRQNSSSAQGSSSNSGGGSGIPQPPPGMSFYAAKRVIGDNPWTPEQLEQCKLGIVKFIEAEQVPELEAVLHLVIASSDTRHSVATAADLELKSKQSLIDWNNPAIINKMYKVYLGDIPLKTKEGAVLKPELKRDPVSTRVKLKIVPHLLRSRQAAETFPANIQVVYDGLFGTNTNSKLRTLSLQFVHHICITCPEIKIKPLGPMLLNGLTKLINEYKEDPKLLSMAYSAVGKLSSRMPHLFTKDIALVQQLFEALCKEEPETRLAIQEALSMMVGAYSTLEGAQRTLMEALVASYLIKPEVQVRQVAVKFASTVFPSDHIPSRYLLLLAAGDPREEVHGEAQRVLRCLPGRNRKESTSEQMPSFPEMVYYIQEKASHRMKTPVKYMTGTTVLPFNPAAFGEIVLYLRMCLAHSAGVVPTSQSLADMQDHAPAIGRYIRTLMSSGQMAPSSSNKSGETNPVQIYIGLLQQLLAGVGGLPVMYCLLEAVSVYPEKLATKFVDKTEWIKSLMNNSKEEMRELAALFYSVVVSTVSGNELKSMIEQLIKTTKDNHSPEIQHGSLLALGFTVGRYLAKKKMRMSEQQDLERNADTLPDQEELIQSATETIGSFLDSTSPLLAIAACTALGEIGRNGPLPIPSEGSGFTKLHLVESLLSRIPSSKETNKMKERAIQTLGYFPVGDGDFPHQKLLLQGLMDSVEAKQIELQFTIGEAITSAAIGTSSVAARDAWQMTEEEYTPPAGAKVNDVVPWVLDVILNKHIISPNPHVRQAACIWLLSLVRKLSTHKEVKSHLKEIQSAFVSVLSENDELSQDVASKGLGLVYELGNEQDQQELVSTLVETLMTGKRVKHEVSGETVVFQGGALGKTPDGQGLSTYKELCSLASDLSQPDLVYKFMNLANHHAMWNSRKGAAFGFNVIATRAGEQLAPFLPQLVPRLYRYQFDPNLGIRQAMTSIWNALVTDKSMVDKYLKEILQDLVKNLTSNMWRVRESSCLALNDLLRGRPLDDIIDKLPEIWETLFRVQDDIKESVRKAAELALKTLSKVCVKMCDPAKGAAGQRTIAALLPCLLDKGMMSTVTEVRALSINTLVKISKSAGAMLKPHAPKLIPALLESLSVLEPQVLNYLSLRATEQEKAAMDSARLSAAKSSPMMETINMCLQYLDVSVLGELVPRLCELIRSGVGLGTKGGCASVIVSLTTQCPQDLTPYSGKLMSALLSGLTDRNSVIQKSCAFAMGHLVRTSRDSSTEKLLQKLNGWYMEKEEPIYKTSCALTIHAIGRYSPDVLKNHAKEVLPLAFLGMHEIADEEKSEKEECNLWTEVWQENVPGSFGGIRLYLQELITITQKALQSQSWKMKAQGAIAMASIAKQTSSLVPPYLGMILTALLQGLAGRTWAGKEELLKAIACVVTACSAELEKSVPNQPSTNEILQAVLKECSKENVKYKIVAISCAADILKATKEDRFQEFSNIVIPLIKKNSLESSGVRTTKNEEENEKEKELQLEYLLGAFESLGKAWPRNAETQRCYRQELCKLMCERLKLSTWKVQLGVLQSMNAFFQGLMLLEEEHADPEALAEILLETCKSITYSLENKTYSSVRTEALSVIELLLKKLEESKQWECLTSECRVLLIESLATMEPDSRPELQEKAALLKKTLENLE
UniProt P26641, whole entry, looked up: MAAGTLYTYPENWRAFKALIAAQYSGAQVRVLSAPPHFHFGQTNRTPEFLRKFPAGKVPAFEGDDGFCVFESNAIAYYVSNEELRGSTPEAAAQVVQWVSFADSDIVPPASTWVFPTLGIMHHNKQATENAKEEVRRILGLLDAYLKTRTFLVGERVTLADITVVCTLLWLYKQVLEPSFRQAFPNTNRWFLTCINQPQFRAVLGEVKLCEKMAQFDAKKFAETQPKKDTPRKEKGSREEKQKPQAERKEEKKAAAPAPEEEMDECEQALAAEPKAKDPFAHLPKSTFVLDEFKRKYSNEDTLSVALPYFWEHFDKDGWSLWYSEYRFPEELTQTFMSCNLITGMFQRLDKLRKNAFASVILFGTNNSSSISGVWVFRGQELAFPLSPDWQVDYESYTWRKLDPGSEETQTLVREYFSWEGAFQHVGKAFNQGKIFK
UniProt Q3B7T1: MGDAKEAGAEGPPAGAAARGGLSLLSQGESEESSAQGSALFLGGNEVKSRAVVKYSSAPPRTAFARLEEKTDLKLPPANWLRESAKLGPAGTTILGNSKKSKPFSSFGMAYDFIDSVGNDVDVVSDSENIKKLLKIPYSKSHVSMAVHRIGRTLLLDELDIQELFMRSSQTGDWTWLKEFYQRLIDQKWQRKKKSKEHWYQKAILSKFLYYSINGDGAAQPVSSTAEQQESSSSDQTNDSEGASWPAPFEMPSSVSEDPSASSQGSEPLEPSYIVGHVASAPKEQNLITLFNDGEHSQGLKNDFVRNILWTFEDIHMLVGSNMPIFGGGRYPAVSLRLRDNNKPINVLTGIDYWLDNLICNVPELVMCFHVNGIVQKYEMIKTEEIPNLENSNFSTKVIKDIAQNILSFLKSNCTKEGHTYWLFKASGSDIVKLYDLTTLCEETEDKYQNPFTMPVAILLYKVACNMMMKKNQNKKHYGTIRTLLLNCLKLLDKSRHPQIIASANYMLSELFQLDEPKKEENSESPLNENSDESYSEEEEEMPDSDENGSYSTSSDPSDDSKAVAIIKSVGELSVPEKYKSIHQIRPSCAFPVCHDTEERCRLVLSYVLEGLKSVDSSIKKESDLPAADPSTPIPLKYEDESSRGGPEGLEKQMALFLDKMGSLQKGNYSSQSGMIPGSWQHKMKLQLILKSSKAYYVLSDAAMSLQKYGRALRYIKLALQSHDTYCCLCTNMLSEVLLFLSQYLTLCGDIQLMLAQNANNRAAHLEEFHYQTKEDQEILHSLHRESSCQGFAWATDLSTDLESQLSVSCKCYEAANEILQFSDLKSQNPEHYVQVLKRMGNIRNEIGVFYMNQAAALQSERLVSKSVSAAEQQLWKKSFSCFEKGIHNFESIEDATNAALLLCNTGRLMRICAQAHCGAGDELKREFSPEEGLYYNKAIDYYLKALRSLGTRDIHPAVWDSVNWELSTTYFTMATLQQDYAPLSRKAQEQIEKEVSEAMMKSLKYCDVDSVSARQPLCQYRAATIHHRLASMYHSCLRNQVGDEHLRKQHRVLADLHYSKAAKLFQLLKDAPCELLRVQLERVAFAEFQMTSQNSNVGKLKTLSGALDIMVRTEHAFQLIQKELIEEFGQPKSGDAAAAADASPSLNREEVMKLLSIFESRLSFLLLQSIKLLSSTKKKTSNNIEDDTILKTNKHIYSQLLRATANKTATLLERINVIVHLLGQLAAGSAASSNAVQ
UniProt P41214: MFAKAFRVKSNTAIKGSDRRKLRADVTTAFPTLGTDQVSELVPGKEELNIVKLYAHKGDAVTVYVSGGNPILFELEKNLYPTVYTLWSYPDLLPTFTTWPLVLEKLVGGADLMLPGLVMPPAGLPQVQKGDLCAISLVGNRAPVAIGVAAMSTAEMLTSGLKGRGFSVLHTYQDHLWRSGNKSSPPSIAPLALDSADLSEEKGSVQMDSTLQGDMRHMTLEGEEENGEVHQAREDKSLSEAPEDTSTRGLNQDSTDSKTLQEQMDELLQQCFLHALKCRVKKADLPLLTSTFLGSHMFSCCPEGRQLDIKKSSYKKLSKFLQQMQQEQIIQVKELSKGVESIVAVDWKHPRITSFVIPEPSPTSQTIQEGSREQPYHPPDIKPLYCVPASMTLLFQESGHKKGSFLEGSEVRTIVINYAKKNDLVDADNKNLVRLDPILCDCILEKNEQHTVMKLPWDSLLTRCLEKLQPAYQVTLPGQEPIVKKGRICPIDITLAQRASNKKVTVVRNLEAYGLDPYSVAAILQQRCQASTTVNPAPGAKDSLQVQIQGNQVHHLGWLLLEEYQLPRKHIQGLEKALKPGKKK
UniProt Q96KQ7: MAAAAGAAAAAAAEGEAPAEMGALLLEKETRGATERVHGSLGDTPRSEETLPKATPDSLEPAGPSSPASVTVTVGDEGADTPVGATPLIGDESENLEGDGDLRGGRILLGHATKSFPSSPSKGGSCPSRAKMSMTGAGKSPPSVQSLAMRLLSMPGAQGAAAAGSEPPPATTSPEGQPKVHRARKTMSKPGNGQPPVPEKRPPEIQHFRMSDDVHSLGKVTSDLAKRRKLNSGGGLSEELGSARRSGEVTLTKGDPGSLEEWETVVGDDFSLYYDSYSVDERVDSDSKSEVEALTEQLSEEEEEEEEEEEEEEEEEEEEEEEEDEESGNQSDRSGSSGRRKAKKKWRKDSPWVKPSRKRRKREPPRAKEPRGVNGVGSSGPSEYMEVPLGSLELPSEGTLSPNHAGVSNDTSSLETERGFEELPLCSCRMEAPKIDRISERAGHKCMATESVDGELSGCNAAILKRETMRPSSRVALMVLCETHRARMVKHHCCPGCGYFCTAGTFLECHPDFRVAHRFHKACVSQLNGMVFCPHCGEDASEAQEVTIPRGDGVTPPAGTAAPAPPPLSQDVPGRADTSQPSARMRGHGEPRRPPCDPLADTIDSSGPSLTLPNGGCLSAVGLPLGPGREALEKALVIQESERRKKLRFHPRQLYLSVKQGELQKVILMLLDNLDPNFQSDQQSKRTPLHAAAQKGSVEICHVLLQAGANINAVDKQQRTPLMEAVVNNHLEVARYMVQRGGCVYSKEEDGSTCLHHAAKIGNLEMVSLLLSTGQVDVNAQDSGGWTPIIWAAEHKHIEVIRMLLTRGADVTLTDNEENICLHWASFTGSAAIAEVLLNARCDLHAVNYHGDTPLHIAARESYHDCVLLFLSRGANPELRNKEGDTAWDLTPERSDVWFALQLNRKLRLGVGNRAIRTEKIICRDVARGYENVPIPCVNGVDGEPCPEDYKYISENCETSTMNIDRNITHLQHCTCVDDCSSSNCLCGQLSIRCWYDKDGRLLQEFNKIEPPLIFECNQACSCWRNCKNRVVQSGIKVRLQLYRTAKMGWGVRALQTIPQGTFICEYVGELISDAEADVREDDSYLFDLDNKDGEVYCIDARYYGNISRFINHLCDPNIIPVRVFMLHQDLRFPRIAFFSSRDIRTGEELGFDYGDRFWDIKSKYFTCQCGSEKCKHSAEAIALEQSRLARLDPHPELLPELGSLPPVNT
UniProt P41567, whole entry, looked up: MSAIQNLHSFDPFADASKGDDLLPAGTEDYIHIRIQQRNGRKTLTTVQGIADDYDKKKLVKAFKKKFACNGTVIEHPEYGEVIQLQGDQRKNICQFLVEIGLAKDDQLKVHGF
UniProt P41091, whole entry, looked up: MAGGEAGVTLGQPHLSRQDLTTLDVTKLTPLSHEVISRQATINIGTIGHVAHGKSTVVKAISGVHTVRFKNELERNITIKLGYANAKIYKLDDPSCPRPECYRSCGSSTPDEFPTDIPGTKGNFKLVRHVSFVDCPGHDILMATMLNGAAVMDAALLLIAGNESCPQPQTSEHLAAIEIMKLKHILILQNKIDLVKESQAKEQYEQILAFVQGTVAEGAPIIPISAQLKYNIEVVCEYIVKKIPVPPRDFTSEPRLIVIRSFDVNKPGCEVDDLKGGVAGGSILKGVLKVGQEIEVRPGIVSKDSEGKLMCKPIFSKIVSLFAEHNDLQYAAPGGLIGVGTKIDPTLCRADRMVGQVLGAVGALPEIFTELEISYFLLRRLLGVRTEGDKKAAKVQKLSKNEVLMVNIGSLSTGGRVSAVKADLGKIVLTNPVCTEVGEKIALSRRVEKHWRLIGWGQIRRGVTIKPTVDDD
UniProt Q9H223: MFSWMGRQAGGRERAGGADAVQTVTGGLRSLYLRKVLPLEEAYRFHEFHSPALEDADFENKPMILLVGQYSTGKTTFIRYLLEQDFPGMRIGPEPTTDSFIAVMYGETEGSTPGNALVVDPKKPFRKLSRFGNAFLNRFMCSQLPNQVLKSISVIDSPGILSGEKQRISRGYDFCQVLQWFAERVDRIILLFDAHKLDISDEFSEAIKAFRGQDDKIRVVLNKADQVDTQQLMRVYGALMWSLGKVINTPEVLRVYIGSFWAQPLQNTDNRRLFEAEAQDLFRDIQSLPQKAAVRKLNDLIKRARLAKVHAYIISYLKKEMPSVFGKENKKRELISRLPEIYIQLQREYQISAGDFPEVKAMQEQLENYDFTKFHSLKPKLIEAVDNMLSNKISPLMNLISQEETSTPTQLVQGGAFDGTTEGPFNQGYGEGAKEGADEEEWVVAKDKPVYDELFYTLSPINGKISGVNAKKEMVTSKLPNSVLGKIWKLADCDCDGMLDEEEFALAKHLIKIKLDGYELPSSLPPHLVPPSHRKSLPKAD

Target	probe-labelled cysteine peptide fold change (10 µM)	probe-labelled cysteine peptide fold change (50 µM)
ECPAS_Q5VYK3_1257_TIAALLPCLLDK (UniProt Q5VYK3)	-0.0296	-0.187
EHMT1_Q9H9B1_1111_LLPEFNMAEPPLIFECNHACSCWR (UniProt Q9H9B1)	0.0188	-0.282
EFTUD2_Q15029_256_LAVTVCINK (UniProt Q15029)	-0.16	0.258
EEF1A1_P68104_363_GNVAGDSKNDPPMEAAGFTAQVIILNHPGQISAGYAPVLDCHTAHIACK (UniProt P68104)	-0.147	-0.574
EEF1A1_P68104_363+370_GNVAGDSKNDPPMEAAGFTAQVIILNHPGQISAGYAPVLDCHTAHIACK (UniProt P68104)	-0.193	-0.833
EEF1G_P26641_194_WFLTCINQPQFR (UniProt P26641)	-0.153	0.0663
EDRF1_Q3B7T1_1074_DAPCELLR (UniProt Q3B7T1)	0.101	0.204
EIF2D_P41214_301_ADLPLLTSTFLGSHMFSCCPEGR (UniProt P41214)	0.198	0.129
EEF2_P13639_136_VTDGALVVVDCVSGVCVQTETVLR (UniProt P13639)	0.332	0.221
EDEM1_Q92611_529_CGYATLHHVIDK (UniProt Q92611)	0.0934	0.191
EHMT1_Q9H9B1_58_QAGEAHMAADGETNGSCENSDASSHANAAK (UniProt Q9H9B1)	-0.0491	-0.171
EHHADH_Q08426_199_RLCNKPIQSLPNMDSIFSEALLK (UniProt Q08426)	-0.0292	-0.205
EEF2_P13639_536+557_SDPMVQCIIEESGEHIIAGAGELHLEICLK (UniProt P13639)	-0.0519	-0.0734
ECT2_Q9H8V3_221_VTHLVANCTQGEK (UniProt Q9H8V3)	-0.00819	-0.161
EGLN1_Q9GZT9_21_QYCELCGK (UniProt Q9GZT9)	0.0202	-0.239
EHMT2_Q96KQ7_481_VALMVLCETHR (UniProt Q96KQ7)	-0.000299	-0.0784
EIF1_P41567_94_NICQFLVEIGLAK (UniProt P41567)	0.68	-0.282
EDC3_Q96F86_311_LEMTGVCASQMALTLLGGPNR (UniProt Q96F86)	0.0796	-0.0526

Target	probe-labelled cysteine peptide fold change (10 µM)	probe-labelled cysteine peptide fold change (50 µM)
ECPAS_Q5VYK3_602_MCLAHSAGVVPTSQSLADMQDHAPAIGR (UniProt Q5VYK3)	-0.389	0.116
EDC4_Q6P2E9_976_LCTQLEGLQSTVTGHVER (UniProt Q6P2E9)	-0.0211	0.299
EIF2B3_Q9NR50_206_FHTGLVDAHLYCLKK (UniProt Q9NR50)	-0.139	-0.897
EIF2AK4_Q9P2K8_46_QDHELQALEAIYGADFQDLRPDACGPVK (UniProt Q9P2K8)	-0.361	0.173
EIF2S3_P41091_311_LMCKPIFSK (UniProt P41091)	-0.301	-0.91
EEF1A1_P68104_234_DGNASGTTLLEALDCILPPTR (UniProt P68104)	-0.247	-0.0429
EEF2_P13639_369_CELLYEGPPDDEAAMGIK (UniProt P13639)	-0.0905	-0.05
EIF2S2_P20042_302+305_LYFLQCETCHSR (UniProt P20042)	-0.169	-0.328
EHD4_Q9H223_495_LADCDCDGMLDEEEFALAK (UniProt Q9H223)	0.00246	-0.276
EIF2D_P41214_386_EQPYHPPDIKPLYCVPASMTLLFQESGHK (UniProt P41214)	0.0939	-0.123
EEF1G_P26641_266_AAAPAPEEEMDECEQALAAEPK (UniProt P26641)	-0.0104	-0.102
EHMT1_Q9H9B1_954_YDCVVLFLSR (UniProt Q9H9B1)	0.432	0.511
EIF2A_Q9BY44_377_LISKPVASDSTYFAWCPDGEHILTATCAPR (UniProt Q9BY44)	-0.077	-0.141
EIF2S3_P41091_105_SCGSSTPDEFPTDIPGTK (UniProt P41091)	-0.0873	-0.0641
ECI1_P42126_173_YCIGLNETQLGIIAPFWLK (UniProt P42126)	0.113	0.0458
EEF1A1_P68104_370_GNVAGDSKNDPPMEAAGFTAQVIILNHPGQISAGYAPVLDCHTAHIACK (UniProt P68104)	-0.032	-0.853
EEF1A1_P68104_234_KDGNASGTTLLEALDCILPPTRPTDK (UniProt P68104)	-0.00051	-0.0488

As entered above:
In probe-labelled cysteine peptide fold change (10 µM), EEF1A1_P68104_234_KDGNASGTTLLEALDCILPPTRPTDK (UniProt P68104) shows -0.00051
In probe-labelled cysteine peptide fold change (10 µM), EEF1A1_P68104_370_GNVAGDSKNDPPMEAAGFTAQVIILNHPGQISAGYAPVLDCHTAHIACK (UniProt P68104) shows -0.032
